Experimental data taken from paper PMC10294612.
These are yes or no findings as the source states them, for the method shown. In cells and extracts the contact can be indirect. A result given as binding can be weak or reduced; the word gives no strength. Where a sequence is shown, tags or fusion partners need not be part of it.

B1: HIP-mAID-HA (TgHIP with a C-terminal miniAID-3HA tag) (protein, UniProt S8GK24 1-425)
chain: MAALSPQKVAELKAFIGMCERDPSILHRPELSFFKEYLQSLKAAIPAERQAGAGSPDRPTTSPVPEASSDDSSLESEVEEFDEESLKDSEVIPPETSPLPPLAPEGEKELTDDELDKLGKLKEEASAACEAGNSERALEKFTEALLIGNPTALLYTRRADVLLKLKRPVACIRDCDEALKLNPDSARAYKIRGKANRLLGKWREAHSDLDMGQKIDYDEGLWDMQKLVDEKFKKIEEHERKIVRKCEEAEKKRREKEARKRRAAAQRAYEEQKQRDAAGSGGFPGGFPEGFPGFGGGAGFPGGAGGFGYSGGMPGTFPSSSCGGSGMTGTPGGCCGGMGGGCGGGMPSNSVPGGAGNLFGALNDPELKKLFENPKMMAAFQDIMSNPSSISKYASDPEVMAAMGSLTSKFGGGVPGAGFPTGSPM

What was measured:
[1] = molecular target: T1, HIP-mAID-HA (TgHIP with a C-terminal miniAID-3HA tag) (Toxoplasma gondii (endogenous locus in RHΔKu80-Tir1)) (UniProt S8GK24); assay: co-IP; lysates of HIP-mAID-HA/HOOK-Ty parasites in 1% Triton X-100-PBS; anti-HA or anti-Ty antibodies with Protein A-Sepharose, 4°C; eluate read by Western blot
T1 sequence: B1 chain

[2] = molecular target: TgHOOK endogenously Ty-tagged in the HIP-mAID-HA strain (HOOK-Ty) (Toxoplasma gondii (endogenous locus in RHΔKu80-Tir1)); assay: as above

Molecule | binding [1] | binding [2]
TgHOOK endogenously Ty-tagged in the HIP-mAID-HA strain (HOOK-Ty) | binds | –
B1 | – | binds
